{"source": "PubChem BioAssay AID2685", "about": "(National Center for Advancing Translational Sciences (NCATS), 2010)", "note": "Screen size: about 320,000 compounds; about 2,100 (0.66%) were called active. Inconclusive means that the source gave no clear call. Such entries were picked first, then a sample of the others. Calls follow the shape of the dose curve; as a rule, active = well fitted inhibition curve with a large enough effect in the signal ratio, with a control signal flat (not every such curve was filed as active); inconclusive = small, poorly fitted or top-dose-only effect, or effect the other way, or a change in a side signal; inactive = flat fitted curve, though single readings scatter; the % refers to the signal ratio. A potency beside an inconclusive call is a rough fit, not a confirmed value. % is scaled to controls: 0 for no effect and ±100 for the full control effect; potency is read from the fitted curve at half-maximal effect.", "data": [{"assay": "qHTS Assay for Lipid Storage Modulators in Drosophila S3 Cells", "details": "BODIPY lipid droplet fluorescence, 18-24 h, cells fed with added oleic acid; lipid storage change, negative = inhibition: at 46.1 µM (top of the series) unless noted", "how_it_was_run": "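Laser-scanning cytometry quantifies lipid droplet accumulation (500–530 nm total intensity; droplet/cell object ratio) in oleic acid-fed (400 uM added) Drosophila S3 cells treated with a concentration series. 20 uM Triacsin C defined 100% inhibition.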", "values": [{"smiles": "O=C1c2ccccc2C(=O)C1Cc1cccc2ccccc12", "lipid storage change, negative = inhibition": "inconclusive: -50.4%"}, {"smiles": "COc1ccc(C(=O)Nc2ccc(N3CCCC3)cc2)cc1Br", "lipid storage change, negative = inhibition": "inconclusive: 36.5%"}, {"smiles": "O=C(CCc1ccccc1)NNC(=O)CCc1ccccc1", "Potency": "inconclusive: 0.58 µM [falling, single point]"}, {"smiles": "CCN(Cc1ccncc1)C(=O)Cc1cccs1", "lipid storage change, negative = inhibition": "inconclusive: -38.3%"}, {"smiles": "O=C(NCc1ccccc1)c1ccc2nc(-c3ccco3)c(-c3ccco3)nc2c1", "Potency": "inconclusive: 18.4 µM [activator, single point]"}, {"smiles": "Cc1ccc(/C=N/Nc2nc3ccccc3[nH]2)s1", "Potency": "inconclusive: 32.6 µM [falling, single point]"}, {"smiles": "O=C(NC(=S)NCc1ccncc1)c1ccccc1", "Potency": "inconclusive: 20.6 µM [activator, partial curve]"}, {"smiles": "CCc1ccc(/C=C2\\Oc3cc(OC(=O)N4CCOCC4)ccc3C2=O)cc1", "lipid storage change, negative = inhibition": "inconclusive: -97.1%"}, {"smiles": "CCN(CC)S(=O)(=O)c1ccc2c(c1)nc(CCC(=O)Nc1ccc(N3CCOCC3)cc1)n2C", "lipid storage change, negative = inhibition": "inconclusive: 32.4%"}, {"smiles": "O=C(Nc1ccc(S(=O)(=O)Nc2ncccn2)cc1)c1ccc(F)c(S(=O)(=O)N2CCOCC2)c1", "lipid storage change, negative = inhibition": "inconclusive: 16.1%"}, {"smiles": "Cc1cc(C)c2c(SC(C)C)nc(N)nc2n1", "lipid storage change, negative = inhibition": "inconclusive: 29%"}, {"smiles": "COc1cccc(CC(=O)OCC(=O)N2CCN(c3ccc(F)cc3)CC2)c1", "Potency": "inconclusive: 16.4 µM [activator, single point]"}, {"smiles": "COC(=O)Cc1c(O)ccn(CCc2ccccc2)c1=O", "lipid storage change, negative = inhibition": "inconclusive: -46.1%"}, {"smiles": "O=c1c2ccccc2n(CC(O)CN2CCOCC2)c2ccccc12", "note": "(stereo not given)", "lipid storage change, negative = inhibition": "inconclusive: 7.6%"}, {"smiles": "CCOc1ccc(/C=N/OCC(=O)NC(c2ccccc2)c2ccccc2)cc1", "lipid storage change, negative = inhibition": "inconclusive: -123%"}, {"smiles": "CN(C)S(=O)(=O)Oc1ccccc1C(=O)Nc1cccc(C(F)(F)F)c1", "lipid storage change, negative = inhibition": "inconclusive: -20.2%"}, {"smiles": "CCOc1cc(C(=O)OCC(=O)Nc2ccc(F)cc2Cl)ccc1OCC(=O)N1CCOCC1", "Potency": "inconclusive: 6.51 µM [falling, single point]"}, {"smiles": "Cc1cc2nc(Sc3c([N+](=O)[O-])nc(C)n3Cc3ccccc3)[nH]c2cc1C", "Potency": "inconclusive: 18.4 µM [falling, single point]"}, {"smiles": "[N-]=[N+]=NC1C[C@H](n2ccc(=O)[nH]c2=O)O[C@@H]1CO", "note": "(stereo not given in full)", "lipid storage change, negative = inhibition": "inconclusive: -1.92%"}, {"smiles": "COc1ccc(CC(=O)Nc2c3c(nn2-c2cccc(C)c2C)CS(=O)C3)cc1", "note": "(stereo not given)", "lipid storage change, negative = inhibition": "inconclusive: 23.2%"}, {"smiles": "CSCCNC(=O)Nc1c(-c2c(Cl)cccc2Cl)noc1C", "lipid storage change, negative = inhibition": "inactive: 2.52%"}, {"smiles": "Cc1sc2nc(SC3CCOC3=O)n(Cc3ccccc3)c(=O)c2c1C", "note": "(stereo not given)", "Potency": "inconclusive: 0.092 µM [falling, full curve, poor fit]"}, {"smiles": "CCCCC(=O)Nc1nnc(S(=O)(=O)N2CCCc3ccccc32)s1", "lipid storage change, negative = inhibition": "inconclusive: -35.8%"}, {"smiles": "Cc1cccc(NC(=O)C2CCCN2C(=O)OCc2ccccc2)c1", "note": "(stereo not given)", "Potency": "inconclusive: 10.3 µM [falling, single point]"}, {"smiles": "COc1cc2c(cc1OC)C(c1cccc(Br)c1)NC(=O)C2", "note": "(stereo not given)", "Potency": "inconclusive: 29.1 µM [falling, single point]"}, {"smiles": "COC(=O)c1ccc(-c2noc(CN(Cc3ccncc3)CC3CCCO3)n2)cc1", "note": "(stereo not given)", "lipid storage change, negative = inhibition": "inconclusive: -26.5%"}, {"smiles": "Cc1cc(C)nc(NCc2ccc(Cl)cc2)n1", "Potency": "inconclusive: 9.2 µM [activator, partial curve]"}, {"smiles": "O=C(O)C(CCCCNS(=O)(=O)c1ccc(F)cc1)NS(=O)(=O)c1ccc(F)cc1", "note": "(stereo not given)", "Potency": "inconclusive: 5.17 µM [falling, single point]"}, {"smiles": "O=C(NCC(=O)N(c1cccc(F)c1)C(C(=O)NCC1CCCO1)c1ccccc1)c1ccco1", "note": "(stereo not given)", "Potency": "inconclusive: 0.146 µM [falling, full curve, poor fit]"}, {"smiles": "CN(C)C(=O)c1ccc(NC(=O)c2ccccc2SCC(=O)N2CCCC2)cc1", "Potency": "inconclusive: 0.0046 µM [activator, full curve, poor fit]"}, {"smiles": "Cc1ccc(N2CC(C(=O)NNC(=O)c3ccc(F)cc3)CC2=O)cc1", "note": "(stereo not given)", "Potency": "inconclusive: 2.91 µM [activator, full curve]"}, {"smiles": "COCCCNC(=S)Nc1ccccc1C", "lipid storage change, negative = inhibition": "inconclusive: -148%"}, {"smiles": "O=C(Cc1csc(-c2ccccc2)n1)NCc1ccco1", "lipid storage change, negative = inhibition": "inconclusive: -18.3%"}, {"smiles": "COc1ccc(C(=O)Nc2ccc(C(=O)N3CCCCC3C)cc2)c(OC)c1OC", "note": "(stereo not given)", "lipid storage change, negative = inhibition": "inconclusive: 7.2%"}, {"smiles": "CC(C)Cc1cc(C(=O)O)n[nH]1", "lipid storage change, negative = inhibition": "inconclusive: -86.8%"}, {"smiles": "CC(=O)c1cccc(NC(=O)c2cc(-c3ccncc3)nc3ccccc23)c1", "Potency": "inconclusive: 0.731 µM [falling, single point]"}, {"smiles": "Cc1ccccc1CN1C(=O)CSc2ccc(C(=O)N3CCOCC3)cc21", "Potency": "inconclusive: 0.517 µM [falling, full curve]"}, {"smiles": "CS(=O)(=O)N1CCN(c2ccc(NC(=S)NC(=O)c3ccc4c(c3)OCO4)cc2)CC1", "lipid storage change, negative = inhibition": "inconclusive: 3.72%"}, {"smiles": "O=C(NCc1ccccc1)c1ccc(Cl)nc1", "lipid storage change, negative = inhibition": "inactive: 3.79%"}, {"smiles": "Cc1ccc(/C=N/NC(=O)Cn2nc(C)c(Br)c2C)o1", "lipid storage change, negative = inhibition": "inconclusive: 43.6%"}, {"smiles": "COc1ccc(OCC(=O)Nn2c(-c3ccc(OC)cc3)nc3ccccc3c2=O)cc1", "lipid storage change, negative = inhibition": "inconclusive: -100%"}, {"smiles": "Cc1c(C(=O)O)nn(-c2cccc(C(F)(F)F)c2)c(=O)c1C#N", "lipid storage change, negative = inhibition": "inconclusive: -19.2%"}, {"smiles": "COc1ccc(S(=O)(=O)NCc2ccco2)c2ccccc12", "lipid storage change, negative = inhibition": "inconclusive: 22.7%"}, {"smiles": "C#CCOCCOCCOCCNc1nc(N2CCN(C(=O)C([C@@H](C)CC)n3cc(C(N)Cc4ccc(O)cc4)nn3)CC2)nc(N2CCN(C(=O)[C@H](CCC(=O)O)n3cc(C(N)[C@H](C)CC)nn3)CC2)n1", "note": "(stereo not given in full)", "lipid storage change, negative = inhibition": "inconclusive: -24%"}, {"smiles": "COc1ccc(NC(=O)Cc2nnc(SCC(=O)Nc3cc(C)ccc3OC)n2C)cc1", "Potency": "inconclusive: 0.651 µM [activator, partial curve, poor fit]"}, {"smiles": "O=C(Nc1ccccc1NC(=O)c1c(F)cccc1F)c1c(F)cccc1F", "lipid storage change, negative = inhibition": "inconclusive: 26.2%"}, {"smiles": "Cc1ccc(S(=O)(=O)N2CCC(C(=O)OCC(=O)N(CCC#N)c3ccc(F)cc3)CC2)cc1C", "lipid storage change, negative = inhibition": "inconclusive: 30.4%"}, {"smiles": "O=C(CN1CCN(Cc2ccccc2Cl)C1=O)NCc1ccccn1", "lipid storage change, negative = inhibition": "inconclusive: -15.6%"}, {"smiles": "CN(CCC#N)C(=O)Cn1nc(Cc2ccncc2)c2ccccc2c1=O", "lipid storage change, negative = inhibition": "inconclusive: 49.4%"}, {"smiles": "CC(C)C(NS(=O)(=O)/C=C/c1ccccc1)C(=O)NCc1ccc(F)cc1", "note": "(stereo not given)", "Potency": "inconclusive: 0.58 µM [activator, single point]"}, {"smiles": "O=C1CSc2ccc(C(=O)NCCC3=CCCCC3)cc2N1", "lipid storage change, negative = inhibition": "inconclusive: -2.39%"}, {"smiles": "COc1ccccc1/C=C1\\SC(=S)N(CCC(=O)NCCc2ccc(O)cc2)C1=O", "lipid storage change, negative = inhibition": "inconclusive: -86.2%"}, {"smiles": "O=C(CCc1nc2ccccc2c(=O)[nH]1)N1CCN(C/C=C/c2ccccc2)CC1", "Potency": "inconclusive: 18.4 µM [falling, single point]"}, {"smiles": "Cc1nn(Cc2ccc([N+](=O)[O-])cc2)c(=O)n1-c1cccc(Cl)c1", "lipid storage change, negative = inhibition": "inconclusive: -14.4% [cytotoxic]"}, {"smiles": "CN1C(=O)N(CC(=O)Nc2sccc2C(N)=O)C(=O)C12CCCCC2", "Potency": "inconclusive: 3.26 µM [activator, single point]"}, {"smiles": "O=C(CN1C(=O)c2ccccc2C1=O)NCC(=O)OCC(=O)c1ccc(Br)cc1", "lipid storage change, negative = inhibition": "inconclusive: 21.3%"}, {"smiles": "COC(CNC(=O)c1c[nH]c2ccc(S(=O)(=O)N3CCOCC3)cc2c1=O)OC", "lipid storage change, negative = inhibition": "inconclusive: -23.8%"}, {"smiles": "CC1CCCN(CCCCOc2cccc(Br)c2)C1", "note": "(stereo not given)", "Potency": "inconclusive: 9.2 µM [activator, partial curve]"}, {"smiles": "CCOc1ccc(C(=O)Nc2ccccc2C#N)cc1[N+](=O)[O-]", "lipid storage change, negative = inhibition": "inconclusive: 15.6%"}, {"smiles": "Cn1c(=O)n(C)c2cc(NC(=O)c3ccccc3[N+](=O)[O-])c(Br)cc21", "lipid storage change, negative = inhibition": "inconclusive: 15.5%"}, {"smiles": "O=[N+]([O-])c1ccccc1Nc1cccnc1", "lipid storage change, negative = inhibition": "inconclusive: -2.53%"}, {"smiles": "CCOc1ccc(CC(=O)N2CCN=C2SC)cc1", "lipid storage change, negative = inhibition": "inconclusive: -20.2%"}, {"smiles": "S=c1[nH]nc(-c2ccc(Cl)cc2)n1-c1ccc(Cl)cc1", "Potency": "inconclusive: 29.1 µM [activator, single point]"}, {"smiles": "COCCN(C(=O)COC(=O)c1ccco1)c1c(N)n(Cc2ccccc2)c(=O)[nH]c1=O", "lipid storage change, negative = inhibition": "inconclusive: 9.39%"}, {"smiles": "CCOC(=O)C1CCN(C(=O)CCS(=O)(=O)c2ccc3c(c2)n(C)c(=O)c(=O)n3C)CC1", "lipid storage change, negative = inhibition": "inconclusive: 10.2%"}, {"smiles": "O=C(c1ccc(S(=O)(=O)Nc2ccccc2F)cc1)N1CCCCCC1", "lipid storage change, negative = inhibition": "inconclusive: 31.2%"}, {"smiles": "Cc1ccc(SCc2ccc(C(=O)N3CCCCC3)cc2)cc1", "lipid storage change, negative = inhibition": "inconclusive: -35.5%"}, {"smiles": "CC(C)NS(=O)(=O)c1ccc(OCC(=O)N2CCCC2)c(Cl)c1", "lipid storage change, negative = inhibition": "inconclusive: 28.8%"}, {"smiles": "c1ccc2c(c1)ncn2CCCOc1ccc2c(c1)CCC2", "Potency": "inconclusive: 2.91 µM [rising, single point]"}, {"smiles": "Cc1cc(Cl)ccc1OCC(=O)OC(C)C(=O)NC(N)=O", "note": "(stereo not given)", "lipid storage change, negative = inhibition": "inconclusive: 36.3%"}, {"smiles": "O=C(NC(=S)NC1CCCC1)c1ccccc1", "lipid storage change, negative = inhibition": "inconclusive: 15.1%"}, {"smiles": "COc1cc(NC(=S)Nc2ccc(N(C)C(C)=O)cc2)cc(OC)c1", "lipid storage change, negative = inhibition": "inconclusive: -41.1% [cytotoxic] [at 0.369 µM]"}, {"smiles": "N#C/C(=C/c1ccc(-c2ccc(C(=O)O)c(Cl)c2)o1)C(=O)NCC1CCCO1", "note": "(stereo not given)", "Potency": "inconclusive: 0.231 µM [rising, full curve, poor fit]"}, {"smiles": "COc1ccc(-c2coc3cc(OC4OC(CO)C(O)C(O)C4O)ccc3c2=O)cc1", "note": "(stereo not given)", "lipid storage change, negative = inhibition": "inconclusive: 1.66%"}, {"smiles": "Cn1c(=O)c2c(nc(SCCN3CCCCC3)n2C)n(C)c1=O", "lipid storage change, negative = inhibition": "inconclusive: 4.03%"}]}]}
